Measurements reported in ChEMBL document CHEMBL1275285, “Synthesis, antimicrobial and anti-inflammatory activities of novel 5-(1-adamantyl)-1,3,4-thiadiazole derivatives” (2010).
In brackets after ≈: the same amount, converted by molar mass.

Test system: Staphylococcus aureus
Assay: Antimicrobial activity against Staphylococcus aureus IFO 3060 after 24 hrs
Format: functional
Conditions: IFO 3060, 24 h
Outline: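 MIC by two-fold serial dilution in wells, inoculated with microbial suspensions at 10^6 CFU/mL. Incubation was at 36 °C for 24 h (bacteria) or 48 h (C. albicans). MIC was the lowest concentration fully inhibiting visible growth, read by unaided eye.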

`CC1(C)S[C@@H]2[C@H](NC(=O)[C@H](N)c3ccccc3)C(=O)N2[C@H]1C(=O)O` [AMPICILLIN] was tested, and the MIC was 2 µg/mL (≈ 5.72 µM).
